Experimental data as given in patent US6939534B2, “Method to treat pulmonary hypoplasia in the newborn” (GenoMed, LLC, priority 2001, dated 2005).

Assay: Direct radioimmunoassay of EGF content of neonatal urine
Parameters: species or system human

Substance: epidermal growth factor [EGF]
- EGF content of neonatal urine by direct radioimmunoassay (day 1): 30.1 ± 9.0 ng/mL
- EGF content of neonatal urine by direct radioimmunoassay (day 3): 40.0 ± 11.3 ng/mL
